Consider two molecules from publication doi:10.1101/2023.07.15.549169.

The target of assay [1] is T1, His-tagged SMAD4 WT (Mothers against decapentaplegic homolog 4), Q13485.
T1 chain: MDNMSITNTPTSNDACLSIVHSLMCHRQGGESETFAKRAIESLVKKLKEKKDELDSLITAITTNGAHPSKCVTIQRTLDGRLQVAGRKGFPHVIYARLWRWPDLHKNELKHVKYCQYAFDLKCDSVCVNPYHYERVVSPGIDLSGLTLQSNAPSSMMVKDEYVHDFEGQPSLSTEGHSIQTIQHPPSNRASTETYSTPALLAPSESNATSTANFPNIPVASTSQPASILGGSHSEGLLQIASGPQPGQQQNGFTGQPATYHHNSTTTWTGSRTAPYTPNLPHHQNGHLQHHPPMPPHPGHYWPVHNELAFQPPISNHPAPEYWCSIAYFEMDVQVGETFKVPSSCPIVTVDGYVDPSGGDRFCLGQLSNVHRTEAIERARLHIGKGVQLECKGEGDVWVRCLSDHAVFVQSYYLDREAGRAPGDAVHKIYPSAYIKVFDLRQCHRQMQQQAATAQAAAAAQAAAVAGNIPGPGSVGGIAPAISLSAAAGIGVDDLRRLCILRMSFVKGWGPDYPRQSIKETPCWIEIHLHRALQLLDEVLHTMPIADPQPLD
Kind of assay: AlphaScreen or HTRF. The conditions noted are these: remark: other sources report otherwise. A general note: Bead proximity is the source of the signal in Alpha formats.

Assay [2] addresses T2, GST-SMAD4 (full-length), Q13485.
T2 chain: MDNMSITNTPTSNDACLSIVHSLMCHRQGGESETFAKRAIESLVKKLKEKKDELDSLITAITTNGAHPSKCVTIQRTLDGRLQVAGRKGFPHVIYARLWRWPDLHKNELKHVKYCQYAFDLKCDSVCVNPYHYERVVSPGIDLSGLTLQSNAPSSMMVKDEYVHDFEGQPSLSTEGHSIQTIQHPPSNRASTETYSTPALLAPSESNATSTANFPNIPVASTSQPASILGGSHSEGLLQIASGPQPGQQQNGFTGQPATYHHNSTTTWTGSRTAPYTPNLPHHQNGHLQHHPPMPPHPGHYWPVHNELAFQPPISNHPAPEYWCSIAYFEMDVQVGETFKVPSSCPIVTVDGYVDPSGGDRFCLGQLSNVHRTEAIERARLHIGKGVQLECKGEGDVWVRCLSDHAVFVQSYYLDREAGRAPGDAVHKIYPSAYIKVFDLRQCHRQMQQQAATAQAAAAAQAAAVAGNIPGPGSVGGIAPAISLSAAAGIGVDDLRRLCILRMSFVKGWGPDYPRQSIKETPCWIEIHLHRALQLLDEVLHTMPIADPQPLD
Kind of assay: pull-down. The conditions noted are these: remark: other sources report otherwise.

Results are given in words; binding and its absence hold for the method and conditions named. For some assays here: In cells and extracts the contact can be indirect. Some results given as binding are weak or reduced against the parent protein; the word gives no strength. Tags and fused reporters may be left off the sequences shown.

B1: Flag-tagged SMAD3 WT, P84022 1-425 (natural protein)
chain: MSSILPFTPPIVKRLLGWKKGEQNGQEEKWCEKAVKSLVKKLKKTGQLDELEKAITTQNVNTKCITIPRSLDGRLQVSHRKGLPHVIYCRLWRWPDLHSHHELRAMELCEFAFNMKKDEVCVNPYHYQRVETPVLPPVLVPRHTEIPAEFPPLDDYSHSIPENTNFPAGIEPQSNIPETPPPGYLSEDGETSDHQMNHSMDAGSPNLSPNPMSPAHNNLDLQPVTYCEPAFWCSISYYELNQRVGETFHASQPSMTVDGFTDPSNSERFCLGLLSNVNRNAAVELTRRHIGRGVRLYYIGGEVFAECLSDSAIFVQSPNCNQRYGWHPATVCKIPPGCNLKIFNNQEFAALLAQSVNQGFEAVYQLTRMCTIRMSFVKGWGAEYRRQTVTSTPCWIELHLNGPLQWLDKVLTQMGSPSIRCSSVS
As to B1, the binding result in assay [1] is “binds”.

B2: Venus-flag-tagged (VF) SMAD3 (full-length), P84022 1-425 (protein)
chain: MSSILPFTPPIVKRLLGWKKGEQNGQEEKWCEKAVKSLVKKLKKTGQLDELEKAITTQNVNTKCITIPRSLDGRLQVSHRKGLPHVIYCRLWRWPDLHSHHELRAMELCEFAFNMKKDEVCVNPYHYQRVETPVLPPVLVPRHTEIPAEFPPLDDYSHSIPENTNFPAGIEPQSNIPETPPPGYLSEDGETSDHQMNHSMDAGSPNLSPNPMSPAHNNLDLQPVTYCEPAFWCSISYYELNQRVGETFHASQPSMTVDGFTDPSNSERFCLGLLSNVNRNAAVELTRRHIGRGVRLYYIGGEVFAECLSDSAIFVQSPNCNQRYGWHPATVCKIPPGCNLKIFNNQEFAALLAQSVNQGFEAVYQLTRMCTIRMSFVKGWGAEYRRQTVTSTPCWIELHLNGPLQWLDKVLTQMGSPSIRCSSVS
For B2, in assay [2], the binding result was “binds”.
